Laboratory results taken from the supplement of paper PMC12823440, “Inhibitors supercharge kinase turnover through native proteolytic circuits” (Nature, 2025).
The list shows a part of the results. Hit calls seldom repeat between salt and free forms of one compound.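 Kinases were expressed as nanoluciferase fusions in K562 cells and luminescence was read every 4 h between 2 and 18 h as percent of control, DMSO set to 100% and a positive control to 0%. A time point counts as decreased when the signal drops significantly (2 sigma). The hit call is the authors' own, does not follow from the count of time points alone, and its rule is not shown.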

The chains behind the UniProt entries cited, without tags or fusion partners. Where a name states a change or a piece, a line headed by the entry shows the natural chain unless it says otherwise.
UniProt P00519, whole entry: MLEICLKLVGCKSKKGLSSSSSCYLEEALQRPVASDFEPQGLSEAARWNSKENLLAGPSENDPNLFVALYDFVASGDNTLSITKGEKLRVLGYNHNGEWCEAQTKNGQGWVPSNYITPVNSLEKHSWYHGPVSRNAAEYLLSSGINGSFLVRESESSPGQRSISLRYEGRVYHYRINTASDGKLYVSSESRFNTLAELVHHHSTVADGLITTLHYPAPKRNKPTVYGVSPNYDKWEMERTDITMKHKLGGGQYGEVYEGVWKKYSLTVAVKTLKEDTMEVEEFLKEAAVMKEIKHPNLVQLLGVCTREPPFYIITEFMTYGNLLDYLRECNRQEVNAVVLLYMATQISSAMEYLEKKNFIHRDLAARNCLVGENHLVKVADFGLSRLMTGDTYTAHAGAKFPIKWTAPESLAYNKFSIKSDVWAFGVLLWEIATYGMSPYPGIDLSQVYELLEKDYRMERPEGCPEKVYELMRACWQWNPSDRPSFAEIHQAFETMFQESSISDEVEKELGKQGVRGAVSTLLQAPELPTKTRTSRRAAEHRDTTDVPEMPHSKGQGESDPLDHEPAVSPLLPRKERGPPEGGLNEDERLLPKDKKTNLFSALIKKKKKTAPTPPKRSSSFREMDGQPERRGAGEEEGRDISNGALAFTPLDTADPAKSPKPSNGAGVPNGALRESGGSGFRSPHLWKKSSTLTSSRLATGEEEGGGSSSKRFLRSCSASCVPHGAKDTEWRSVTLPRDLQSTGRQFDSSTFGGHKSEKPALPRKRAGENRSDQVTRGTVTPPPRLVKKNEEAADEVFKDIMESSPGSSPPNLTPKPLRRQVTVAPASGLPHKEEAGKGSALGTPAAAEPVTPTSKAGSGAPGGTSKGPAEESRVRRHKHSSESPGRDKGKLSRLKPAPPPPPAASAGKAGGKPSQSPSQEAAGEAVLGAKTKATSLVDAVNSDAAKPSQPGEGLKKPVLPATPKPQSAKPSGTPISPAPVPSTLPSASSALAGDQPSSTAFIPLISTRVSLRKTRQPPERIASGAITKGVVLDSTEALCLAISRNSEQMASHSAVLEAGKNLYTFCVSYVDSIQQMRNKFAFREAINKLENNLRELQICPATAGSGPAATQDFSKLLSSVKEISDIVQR
UniProt P31749: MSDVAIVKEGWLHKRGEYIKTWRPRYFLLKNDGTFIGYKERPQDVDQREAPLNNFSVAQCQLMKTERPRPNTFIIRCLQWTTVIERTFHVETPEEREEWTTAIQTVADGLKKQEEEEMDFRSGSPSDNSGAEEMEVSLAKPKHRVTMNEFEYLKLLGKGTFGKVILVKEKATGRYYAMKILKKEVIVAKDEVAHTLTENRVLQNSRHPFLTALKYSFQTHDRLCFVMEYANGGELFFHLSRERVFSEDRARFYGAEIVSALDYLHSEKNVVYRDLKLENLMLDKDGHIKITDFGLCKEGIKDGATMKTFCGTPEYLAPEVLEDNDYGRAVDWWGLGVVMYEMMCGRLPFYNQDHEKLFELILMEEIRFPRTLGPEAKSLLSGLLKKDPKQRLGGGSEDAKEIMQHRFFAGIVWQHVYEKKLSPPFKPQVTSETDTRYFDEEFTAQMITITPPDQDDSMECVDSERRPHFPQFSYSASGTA
UniProt Q9UM73: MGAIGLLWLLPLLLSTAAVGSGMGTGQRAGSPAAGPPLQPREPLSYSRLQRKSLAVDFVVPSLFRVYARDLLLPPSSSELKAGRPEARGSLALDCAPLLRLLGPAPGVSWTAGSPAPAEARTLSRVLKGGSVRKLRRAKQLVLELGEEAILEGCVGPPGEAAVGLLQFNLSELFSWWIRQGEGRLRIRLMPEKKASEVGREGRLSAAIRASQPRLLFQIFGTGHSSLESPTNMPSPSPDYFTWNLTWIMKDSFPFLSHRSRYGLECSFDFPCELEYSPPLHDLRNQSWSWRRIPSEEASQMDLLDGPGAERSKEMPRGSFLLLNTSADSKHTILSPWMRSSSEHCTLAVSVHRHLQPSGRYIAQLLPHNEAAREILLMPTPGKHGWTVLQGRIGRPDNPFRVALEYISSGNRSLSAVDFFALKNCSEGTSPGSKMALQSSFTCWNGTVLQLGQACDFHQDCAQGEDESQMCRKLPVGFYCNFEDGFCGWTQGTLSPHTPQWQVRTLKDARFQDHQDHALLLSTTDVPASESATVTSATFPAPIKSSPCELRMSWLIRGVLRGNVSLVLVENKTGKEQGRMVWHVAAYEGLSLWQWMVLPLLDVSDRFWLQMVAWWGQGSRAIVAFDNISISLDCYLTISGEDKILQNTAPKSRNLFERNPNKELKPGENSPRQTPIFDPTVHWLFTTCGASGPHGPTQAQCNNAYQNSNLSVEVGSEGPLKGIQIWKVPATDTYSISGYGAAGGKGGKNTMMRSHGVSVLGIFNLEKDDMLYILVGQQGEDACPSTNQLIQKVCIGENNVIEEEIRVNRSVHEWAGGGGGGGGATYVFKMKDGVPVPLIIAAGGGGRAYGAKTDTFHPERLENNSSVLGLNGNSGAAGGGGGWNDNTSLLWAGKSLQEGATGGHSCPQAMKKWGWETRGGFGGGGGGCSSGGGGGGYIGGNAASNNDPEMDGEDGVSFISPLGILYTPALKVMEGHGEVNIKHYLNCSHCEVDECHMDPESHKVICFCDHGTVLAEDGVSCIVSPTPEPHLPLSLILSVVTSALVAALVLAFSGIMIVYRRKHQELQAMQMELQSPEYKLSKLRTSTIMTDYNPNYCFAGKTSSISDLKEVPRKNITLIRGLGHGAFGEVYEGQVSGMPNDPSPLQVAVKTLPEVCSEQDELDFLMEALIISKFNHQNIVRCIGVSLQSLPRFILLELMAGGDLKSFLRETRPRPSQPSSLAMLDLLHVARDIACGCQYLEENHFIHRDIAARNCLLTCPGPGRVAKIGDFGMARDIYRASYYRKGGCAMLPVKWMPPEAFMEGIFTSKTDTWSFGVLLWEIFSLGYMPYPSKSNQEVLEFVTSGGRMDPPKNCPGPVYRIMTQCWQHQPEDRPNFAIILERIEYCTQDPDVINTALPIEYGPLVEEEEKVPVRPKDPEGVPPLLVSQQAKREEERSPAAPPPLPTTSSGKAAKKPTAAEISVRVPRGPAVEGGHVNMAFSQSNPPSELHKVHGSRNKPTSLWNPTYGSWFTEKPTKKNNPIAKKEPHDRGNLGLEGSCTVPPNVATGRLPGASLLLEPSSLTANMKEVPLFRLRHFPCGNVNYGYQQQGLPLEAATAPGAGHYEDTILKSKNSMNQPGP
UniProt P10398: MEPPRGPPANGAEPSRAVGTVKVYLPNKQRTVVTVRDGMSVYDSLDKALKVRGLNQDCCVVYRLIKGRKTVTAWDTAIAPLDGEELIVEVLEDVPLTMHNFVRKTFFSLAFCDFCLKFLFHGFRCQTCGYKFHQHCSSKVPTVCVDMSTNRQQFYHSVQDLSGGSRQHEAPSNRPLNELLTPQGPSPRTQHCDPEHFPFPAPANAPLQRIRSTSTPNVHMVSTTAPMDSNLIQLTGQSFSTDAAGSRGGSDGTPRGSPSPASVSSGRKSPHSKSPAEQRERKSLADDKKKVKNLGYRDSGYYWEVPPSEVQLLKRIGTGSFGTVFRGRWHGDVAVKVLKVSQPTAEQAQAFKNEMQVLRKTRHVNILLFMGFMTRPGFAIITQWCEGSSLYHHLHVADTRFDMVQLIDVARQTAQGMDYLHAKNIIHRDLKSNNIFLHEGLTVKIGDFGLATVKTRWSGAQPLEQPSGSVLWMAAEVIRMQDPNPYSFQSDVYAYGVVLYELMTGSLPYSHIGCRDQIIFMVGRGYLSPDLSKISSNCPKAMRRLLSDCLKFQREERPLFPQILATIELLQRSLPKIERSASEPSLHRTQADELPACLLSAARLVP
UniProt O14965: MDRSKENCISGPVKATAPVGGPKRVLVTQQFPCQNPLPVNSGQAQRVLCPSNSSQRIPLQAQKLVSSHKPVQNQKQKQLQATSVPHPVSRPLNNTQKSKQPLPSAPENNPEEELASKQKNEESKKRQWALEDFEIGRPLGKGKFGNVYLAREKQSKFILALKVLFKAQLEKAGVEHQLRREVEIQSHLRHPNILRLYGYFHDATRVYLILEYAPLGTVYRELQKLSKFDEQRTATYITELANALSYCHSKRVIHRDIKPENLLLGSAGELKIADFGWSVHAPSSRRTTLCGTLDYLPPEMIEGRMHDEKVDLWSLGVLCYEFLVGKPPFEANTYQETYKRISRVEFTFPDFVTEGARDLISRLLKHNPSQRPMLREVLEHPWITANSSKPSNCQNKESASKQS
UniProt Q9UQB9: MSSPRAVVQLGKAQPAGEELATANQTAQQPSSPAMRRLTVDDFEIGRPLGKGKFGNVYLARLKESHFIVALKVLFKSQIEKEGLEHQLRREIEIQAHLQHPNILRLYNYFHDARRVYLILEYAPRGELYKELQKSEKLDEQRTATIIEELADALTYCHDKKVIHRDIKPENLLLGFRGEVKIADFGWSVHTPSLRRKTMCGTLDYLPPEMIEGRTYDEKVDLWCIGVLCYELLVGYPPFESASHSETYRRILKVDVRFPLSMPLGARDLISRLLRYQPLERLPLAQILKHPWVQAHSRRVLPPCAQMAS
UniProt P51451: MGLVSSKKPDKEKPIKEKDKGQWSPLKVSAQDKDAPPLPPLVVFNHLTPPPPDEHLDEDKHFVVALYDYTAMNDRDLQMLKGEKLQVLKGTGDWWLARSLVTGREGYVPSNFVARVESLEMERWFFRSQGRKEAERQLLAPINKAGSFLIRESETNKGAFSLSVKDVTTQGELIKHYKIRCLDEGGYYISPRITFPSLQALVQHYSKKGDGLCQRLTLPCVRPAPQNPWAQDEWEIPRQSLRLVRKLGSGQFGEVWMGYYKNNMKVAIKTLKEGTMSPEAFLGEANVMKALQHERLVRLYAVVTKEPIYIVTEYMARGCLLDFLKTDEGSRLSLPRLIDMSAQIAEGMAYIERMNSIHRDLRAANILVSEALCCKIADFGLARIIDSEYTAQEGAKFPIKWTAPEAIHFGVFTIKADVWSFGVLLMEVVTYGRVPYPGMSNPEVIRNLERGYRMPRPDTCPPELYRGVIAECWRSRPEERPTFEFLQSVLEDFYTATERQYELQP
UniProt P51813: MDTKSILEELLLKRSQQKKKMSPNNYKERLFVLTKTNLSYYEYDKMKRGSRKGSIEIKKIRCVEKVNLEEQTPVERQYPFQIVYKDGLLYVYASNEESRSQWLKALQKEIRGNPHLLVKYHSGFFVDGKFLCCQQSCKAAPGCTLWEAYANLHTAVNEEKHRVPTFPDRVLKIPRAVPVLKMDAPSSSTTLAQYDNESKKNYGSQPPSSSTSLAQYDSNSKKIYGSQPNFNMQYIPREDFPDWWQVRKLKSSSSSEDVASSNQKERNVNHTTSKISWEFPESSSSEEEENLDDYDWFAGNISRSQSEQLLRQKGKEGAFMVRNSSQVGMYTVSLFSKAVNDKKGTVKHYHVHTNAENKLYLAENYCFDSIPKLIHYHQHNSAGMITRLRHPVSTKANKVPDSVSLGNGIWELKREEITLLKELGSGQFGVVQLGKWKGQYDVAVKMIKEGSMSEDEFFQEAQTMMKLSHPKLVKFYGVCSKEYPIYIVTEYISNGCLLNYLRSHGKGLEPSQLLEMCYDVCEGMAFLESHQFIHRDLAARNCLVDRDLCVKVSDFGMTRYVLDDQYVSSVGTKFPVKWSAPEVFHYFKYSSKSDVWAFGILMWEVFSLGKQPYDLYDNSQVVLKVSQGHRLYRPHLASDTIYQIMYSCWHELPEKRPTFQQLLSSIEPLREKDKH
UniProt P15056, whole entry, looked up: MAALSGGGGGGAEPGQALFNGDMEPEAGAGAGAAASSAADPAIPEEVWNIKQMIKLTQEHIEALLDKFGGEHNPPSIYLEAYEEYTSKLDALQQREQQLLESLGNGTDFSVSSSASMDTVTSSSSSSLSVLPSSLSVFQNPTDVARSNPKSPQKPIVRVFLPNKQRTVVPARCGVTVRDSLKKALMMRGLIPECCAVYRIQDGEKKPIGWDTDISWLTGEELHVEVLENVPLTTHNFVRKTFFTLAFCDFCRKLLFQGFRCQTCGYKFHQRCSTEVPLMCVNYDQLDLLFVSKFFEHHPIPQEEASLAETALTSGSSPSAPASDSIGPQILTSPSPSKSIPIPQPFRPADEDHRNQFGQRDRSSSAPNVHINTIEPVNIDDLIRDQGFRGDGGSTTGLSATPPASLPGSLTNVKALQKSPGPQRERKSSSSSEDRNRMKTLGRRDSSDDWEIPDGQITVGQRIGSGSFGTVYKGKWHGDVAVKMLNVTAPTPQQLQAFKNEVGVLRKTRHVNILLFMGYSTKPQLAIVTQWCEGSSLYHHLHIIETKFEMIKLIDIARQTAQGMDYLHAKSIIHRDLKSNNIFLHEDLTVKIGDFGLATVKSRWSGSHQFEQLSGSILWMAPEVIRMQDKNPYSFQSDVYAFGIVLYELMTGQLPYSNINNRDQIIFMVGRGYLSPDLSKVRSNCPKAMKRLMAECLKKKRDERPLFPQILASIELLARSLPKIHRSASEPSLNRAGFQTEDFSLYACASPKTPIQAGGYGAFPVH

Legend:
Experiment in all cases: kinase-Nluc reporter destabilization hit call (1 = scored as downregulated) (binary); higher = compound decreases kinase abundance
Conditions in all cases: K562; 2-18 h
ABL1 = ABL1 (UniProt P00519)
AKT1 = AKT1 (UniProt P31749)
ALK = ALK (UniProt Q9UM73)
ARAF = ARAF (UniProt P10398)
AURKA = AURKA (UniProt O14965)
AURKB = AURKB (UniProt Q96GD4)
AURKC = AURKC (UniProt Q9UQB9)
BLK = BLK (UniProt P51451)
BMX = BMX (UniProt P51813)
BRAF = BRAF (UniProt P15056)

Measured: kinase-Nluc reporter destabilization hit call

CN1C(=O)[C@@H](NC(=O)c2n[nH]c(Cc3ccccc3)n2)COc2ccccc21 (10 µM)
inactive: ABL1 = 0 | AKT1 = 0 | ALK 0 | ARAF 0 | AURKA 0 | AURKB 0 | AURKC 0 | BLK 0 | BMX 0 | BRAF 0

CC/C(=N\NC(=O)c1ccnc(NCCCN2CCOCC2)c1)c1ccc(Cl)cc1O (2.5 µM)
inactive: ABL1 = 0 | AKT1 = 0 | ALK 0 | ARAF 0 | AURKA 0 | AURKB 0 | AURKC 0 | BLK 0 | BMX 0 | BRAF 0

COc1ccc(N=Nc2c(N)n[nH]c2N)cc1 (10 µM)
inactive: ABL1 = 0 | AKT1 = 0 | ALK 0 | ARAF 0 | AURKA 0 | AURKB 0 | AURKC 0 | BLK 0 | BMX 0 | BRAF 0

COc1c(Nc2cc(C)[nH]n2)nc(Sc2ccc(S(=O)(=O)Cc3cccc([N+](=O)[O-])c3F)cc2F)nc1N1CCCCC1 [Centrinone-B] (2.5 µM)
inactive: ABL1 = 0 | AKT1 = 0 | ALK 0 | ARAF 0 | AURKA 0 | AURKB 0 | AURKC 0 | BLK 0 | BMX 0 | BRAF 0

C[C@H](Nc1ncnc2[nH]cnc12)c1cc2ccc(F)cc2nc1-c1ccccn1 (10 µM)
inactive: ABL1 = 0 | AKT1 = 0 | ALK 0 | ARAF 0 | AURKA 0 | AURKB 0 | AURKC 0 | BLK 0 | BMX 0 | BRAF 0
